In PubChem BioAssay AID504847 (National Center for Advancing Translational Sciences (NCATS), 2011):
Screen size: about 400,000 compounds; about 3,700 (0.93%) were called active. Inconclusive results, whose numbers are uncertain, are shown with a selection of clear calls. Calls come from the whole dose curve; as a rule, active = well fitted inhibition curve with a large enough effect; inconclusive = small, poorly fitted or top-dose-only effect, or another doubt; inactive = no such curve, though single readings can be large or run the other way. Potencies beside an inconclusive call are fits to weak or partial responses and may not hold up.
% is set by controls: 0 for no effect and ±100 for the full control effect; potency is the fitted concentration of half-maximal effect.

Chains of the proteins cited; added tags and fusions are not shown. Lines headed by an entry give the natural chain unless they say otherwise; changes in a name come on top.
UniProt P11473: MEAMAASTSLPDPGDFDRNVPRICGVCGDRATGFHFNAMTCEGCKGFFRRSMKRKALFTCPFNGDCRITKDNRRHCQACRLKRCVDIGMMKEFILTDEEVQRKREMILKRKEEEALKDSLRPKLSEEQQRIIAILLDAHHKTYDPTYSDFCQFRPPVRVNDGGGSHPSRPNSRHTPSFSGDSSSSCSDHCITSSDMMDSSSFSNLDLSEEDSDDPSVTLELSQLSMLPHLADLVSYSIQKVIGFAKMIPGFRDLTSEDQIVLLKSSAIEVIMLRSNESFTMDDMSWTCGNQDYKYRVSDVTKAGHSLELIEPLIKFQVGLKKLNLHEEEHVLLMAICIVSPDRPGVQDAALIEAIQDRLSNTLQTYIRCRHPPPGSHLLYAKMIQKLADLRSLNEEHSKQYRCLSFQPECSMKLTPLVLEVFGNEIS

The molecules below were run against Vitamin D3 receptor (Homo sapiens) (UniProt P11473) (assay: Inhibitors of the vitamin D receptor (VDR): qHTS). Conditions: VDR-SRC2-3 peptide fluorescence polarization, 2 h; max response, negative = inhibition: stronger effect = lower value.
Method in brief: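 Fluorescence polarization assay of small-molecule disruption of VDR binding to coregulator peptide SRC2-3. Compounds and controls pin-transferred, then read after 2 h incubation at ambient room temperature.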
With `COCCCNC(=O)C(C)N1c2cccc3cccc(c23)S1(=O)=O` (configuration not stated) the Potency was active: 70.8 µM. With `CC(C)(C)c1ccc(-n2nc(C#N)c(Cl)cc2=O)cc1` the Potency was inconclusive: 20 µM [inhibitor, full curve, poor fit]. `S=C(NCC1CCCO1)Nc1ccc(Cl)c(Cl)c1` (configuration not stated) was tested, and the Potency was inconclusive: 39.8 µM [inhibitor, single point]. For `COc1cc(/C=C2\C(=N)N3N=C(N4CCOCC4)SC3=NC2=O)ccc1OC(=O)c1ccccc1`, the Potency was inconclusive: 35.5 µM [inhibitor, full curve]. `S=C(NCc1ccco1)Nc1ccc(N2CCOCC2)cc1` was tested, and the Potency was inconclusive: 50.1 µM [inhibitor, partial curve, poor fit]. `CC[C@]1(O)C[C@@H]2CN(CCc3c([nH]c4ccccc34)[C@@](C(=O)OC)(c3cc4c(cc3OC)N(C)C3[C@]45CCN4CC=C[C@](CC)(C45)[C@@H](OC(C)=O)[C@]3(O)C(=O)OC)C2)C1` (some centres not stated) was tested, and the max response, negative = inhibition was inactive: 15.6%. For `Cc1ccc(NC(=S)N(CCCN2CCOCC2)Cc2ccccn2)cc1Cl`, the max response, negative = inhibition was inactive: -14.2%. For `COCCNC(=O)CCCn1c(=O)c2ccccc2n(Cc2cccc([N+](=O)[O-])c2)c1=O`, the Potency was inconclusive: 4.47 µM [inhibitor, partial curve, poor fit]. In the case of `O=C(Nc1ccc(Cl)cc1F)C1CC(=O)N(Cc2ccco2)C1` (configuration not stated), the Potency is reported as inconclusive: 70.8 µM [inhibitor, single point]. In the case of `CCOc1ccc(S(=O)(=O)N/N=C(\C)c2ccc(OC)cc2OC)cc1`, the Potency is reported as inconclusive: 14.1 µM [inhibitor, partial curve, poor fit]. With `CCC(C)NC(=O)CC1Oc2ccc(Cl)cc2NC1=O` (configuration not stated) the Potency was inconclusive: 39.8 µM [inhibitor, single point]. With `CCc1ccc(C2c3c(-c4ccccc4)n[nH]c3C(=O)N2c2ccc(C(=O)O)cc2)cc1` (configuration not stated) the Potency was inconclusive: 79.4 µM [inhibitor, single point]. For `O=C1C=CC(=O)N1c1cccc(-c2ccccc2)c1`, the Potency was active: 44.7 µM. `O=C(COc1ccccc1/C=C\c1nc(O)c([N+](=O)[O-])c(=O)[nH]1)Nc1ccccc1` was tested, and the Potency was inconclusive: 39.8 µM [inhibitor, single point]. With `Cc1ccc(SCC(=O)Nc2cccc(C)c2)cc1` the max response, negative = inhibition was inactive: -4.71%. For `COc1cccc(CC(=O)Nc2ccc(S(=O)(=O)Nc3nc(C)cc(C)n3)cc2)c1`, the Potency was inconclusive: 50.1 µM [inhibitor, partial curve, poor fit]. For `CCCn1c2ccccc2c2cnn(CC(=O)NCCCN(Cc3ccccc3)C(C)C)c(=O)c21`, the max response, negative = inhibition was inactive: 1.31%.
